Results are given in words; binding and its absence hold for the method and conditions named. Binding seen in cells or lysates may run through a third protein. Here binding means that the protein was enriched with, or labelled near, the bait; the list need not be complete.

Protein sequences, listed by entry. Tags and fused reporters are not part of them. Residues count along the entry.
UniProt Q03265, residues 44-553: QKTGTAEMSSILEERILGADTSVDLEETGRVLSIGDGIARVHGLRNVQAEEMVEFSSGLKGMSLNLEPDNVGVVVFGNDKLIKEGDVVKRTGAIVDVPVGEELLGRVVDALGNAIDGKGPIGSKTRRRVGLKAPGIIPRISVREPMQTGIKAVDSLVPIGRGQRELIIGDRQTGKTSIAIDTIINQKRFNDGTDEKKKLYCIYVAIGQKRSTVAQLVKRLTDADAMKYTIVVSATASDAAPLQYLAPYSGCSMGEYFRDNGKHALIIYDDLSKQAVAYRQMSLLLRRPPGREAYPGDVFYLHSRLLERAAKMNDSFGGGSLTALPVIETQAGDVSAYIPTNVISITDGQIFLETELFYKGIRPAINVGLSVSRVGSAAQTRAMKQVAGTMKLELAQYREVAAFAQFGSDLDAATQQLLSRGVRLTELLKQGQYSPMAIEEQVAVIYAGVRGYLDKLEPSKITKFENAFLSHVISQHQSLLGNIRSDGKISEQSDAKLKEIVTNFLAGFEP
UniProt Q99KR7, residues 30-206: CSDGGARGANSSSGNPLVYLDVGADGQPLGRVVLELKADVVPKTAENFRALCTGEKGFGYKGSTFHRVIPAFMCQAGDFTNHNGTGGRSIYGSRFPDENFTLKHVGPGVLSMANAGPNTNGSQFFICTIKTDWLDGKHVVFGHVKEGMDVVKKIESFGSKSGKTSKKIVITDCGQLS
UniProt P38647, residues 47-679: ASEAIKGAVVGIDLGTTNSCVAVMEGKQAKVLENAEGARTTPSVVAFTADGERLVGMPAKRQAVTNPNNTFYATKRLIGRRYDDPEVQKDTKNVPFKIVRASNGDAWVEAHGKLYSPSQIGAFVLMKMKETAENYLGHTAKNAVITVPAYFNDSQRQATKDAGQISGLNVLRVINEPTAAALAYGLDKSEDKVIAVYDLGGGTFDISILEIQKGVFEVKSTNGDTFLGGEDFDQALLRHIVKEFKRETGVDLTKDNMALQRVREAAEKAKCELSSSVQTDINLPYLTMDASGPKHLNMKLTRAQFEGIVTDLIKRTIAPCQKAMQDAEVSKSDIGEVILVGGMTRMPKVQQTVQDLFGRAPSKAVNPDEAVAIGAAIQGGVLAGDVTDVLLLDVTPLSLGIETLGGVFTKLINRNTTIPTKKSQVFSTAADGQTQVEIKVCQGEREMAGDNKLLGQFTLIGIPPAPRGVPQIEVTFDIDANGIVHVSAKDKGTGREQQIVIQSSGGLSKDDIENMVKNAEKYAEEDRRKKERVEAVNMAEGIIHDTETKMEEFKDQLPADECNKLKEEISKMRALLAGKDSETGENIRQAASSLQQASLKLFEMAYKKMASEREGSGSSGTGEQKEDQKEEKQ

For this assay, the target named is T1, Mitochondrial inner membrane protein (Mitofilin/Mic60) (mouse (endogenous in mouse cardiac mitochondria)) (UniProt Q8CAQ8).
T1 sequence: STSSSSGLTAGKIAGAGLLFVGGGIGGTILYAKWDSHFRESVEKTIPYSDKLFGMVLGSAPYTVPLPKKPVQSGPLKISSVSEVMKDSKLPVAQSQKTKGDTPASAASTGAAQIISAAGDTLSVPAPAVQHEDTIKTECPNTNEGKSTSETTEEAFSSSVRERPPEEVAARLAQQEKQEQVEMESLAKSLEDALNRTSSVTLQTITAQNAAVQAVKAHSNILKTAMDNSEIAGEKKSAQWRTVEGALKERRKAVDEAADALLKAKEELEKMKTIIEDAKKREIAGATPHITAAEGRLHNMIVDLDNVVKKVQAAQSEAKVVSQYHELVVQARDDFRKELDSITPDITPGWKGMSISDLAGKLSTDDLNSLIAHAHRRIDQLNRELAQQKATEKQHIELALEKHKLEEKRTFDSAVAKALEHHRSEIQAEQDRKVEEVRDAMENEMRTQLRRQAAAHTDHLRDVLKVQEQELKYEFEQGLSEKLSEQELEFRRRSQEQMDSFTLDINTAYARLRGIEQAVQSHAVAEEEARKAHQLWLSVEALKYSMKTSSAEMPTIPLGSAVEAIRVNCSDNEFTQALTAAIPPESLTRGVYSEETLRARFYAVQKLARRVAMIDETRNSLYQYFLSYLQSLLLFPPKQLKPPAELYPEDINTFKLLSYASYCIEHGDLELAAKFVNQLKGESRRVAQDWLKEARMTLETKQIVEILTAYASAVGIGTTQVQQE
Briefly: affinity purification with mass spectrometry; mitochondrial proteins from normal wild-type mouse hearts immunoprecipitated with an anti-Mitofilin antibody; eluate separated by SDS-PAGE, gel slices digested with trypsin, HPLC-ESI-MS/MS (Orbitrap Velos Pro); Mascot search of UniProt_mouse, Scaffold.
Take “ATP synthase subunit α (from UniProt Q03265 44-553)”: the binding entry is given as “binds”.
The value for “Cyclophilin D (Ppif) (from UniProt Q99KR7 30-206)” was “binds”.
The value for VDAC1 (from UniProt Q60932-2) was “binds”; that for “glucose-regulated protein 75 (GRP75) (from UniProt P38647 47-679)” was “binds”.

The values are drawn from paper PMC10135852.
